The campaign covered roughly 320,000 compounds. About 2,100 (0.66%) were called active. This list was built around the results that the source calls inconclusive (neither active nor inactive); the mix of calls is not that of the screen. Calls follow the shape of the dose curve; as a rule, active = well fitted inhibition curve with a large enough effect in the signal ratio, with a control signal flat (not every such curve was filed as active); inconclusive = small, poorly fitted or top-dose-only effect, or effect the other way, or a change in a side signal; inactive = flat fitted curve, though single readings scatter; the % refers to the signal ratio. A potency beside an inconclusive call is a rough fit, not a confirmed value.
Experiment: qHTS Assay for Lipid Storage Modulators in Drosophila S3 Cells
Settings: BODIPY lipid droplet fluorescence, 18-24 h, cells fed with added oleic acid; lipid storage change, negative = inhibition: at 46.1 µM (top of the series) unless noted
Summary of the method: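 Laser-scanning cytometry quantifies lipid droplet accumulation (500–530 nm total intensity; droplet/cell object ratio) in oleic acid-fed (400 uM added) Drosophila S3 cells treated with a concentration series. 20 uM Triacsin C defined 100% inhibition.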
% is scaled to controls: 0 for no effect and ±100 for the full control effect; potency is read from the fitted curve at half-maximal effect.

Potency, active:
COc1ccc(CN(CC(=O)NC2CCCC2)C(=O)CCC(=O)Nc2nc(C)cs2)cc1 4.61 µM

Potency, inconclusive:
Cc1cccc(C(=O)Nc2ccc(N3CCN(C(=O)c4ccco4)CC3)cc2)c1 11.6 µM [falling, single point]
CCCCC(=O)Nc1ccc(C(=O)Nc2ccc(OC)cc2[N+](=O)[O-])cc1 20.6 µM [falling, single point]
O=c1c2cccc3c(N4CCOCC4)ccc(c32)c2nc3ccccc3n12 23.1 µM [falling, single point]
O=C(O)c1ccccc1C(=O)NNC(=O)C(c1ccccc1)c1ccccc1 16.4 µM [activator, partial curve]
Cn1c(=O)c2c(nc(SCC(=O)NCc3ccc4c(c3)OCO4)n2Cc2ccccc2)n(C)c1=O 0.411 µM [activator, single point]
CC1CCN(CCNC(=O)c2ccc3c(=O)n(Cc4ccc(Cl)cc4)c(=S)[nH]c3c2)CC1 6.51 µM [activator, single point]
CCOc1ccc(C(=O)Nc2ccc(S(=O)(=O)NCC3CCCO3)cc2)cc1OCC (stereo not given) 23.1 µM [falling, single point]
CCCCNC(=O)C(CC)Sc1nc2sc(C(=O)OC)c(C)c2c(=O)n1N (stereo not given) 29.1 µM [activator, single point]
CCOC(=O)/C=c1\s/c(=C\c2ccc(C)cc2)c(=O)n1CC(=O)NCc1ccco1 14.6 µM [falling, partial curve]
O=[N+]([O-])c1cc(/C=N/Nc2nc3ccccc3[nH]2)c(O)cc1O 29.1 µM [falling, single point]
COc1cccc(OCC(=O)N2CCC3(CC2)CC(=O)c2ccccc2O3)c1 0.58 µM [falling, partial curve]
O=C(CN(C(=O)CNC(=O)c1cccs1)c1cccc(F)c1)NC1CCCCC1 6.51 µM [activator, partial curve]
CCN(CC)CCNC(=O)c1ccc(NC(=O)c2cc(-c3ccco3)nc3ccccc23)cc1 3.26 µM [activator, single point]
Cn1cccc1-c1cc(C(=O)N/N=C/c2ccccc2Cl)[nH]n1 14.6 µM [activator, partial curve]
CCOC(=O)N1CCC(NCCNC(=O)c2ccccc2)CC1 29.1 µM [falling, single point]
Cc1ccc(NC(=S)c2ccc3ccccc3n2)c(C)c1 4.61 µM [falling, full curve, poor fit]
Cc1ccc(NC(=O)/C(C#N)=C/c2ccccc2C(F)(F)F)cc1 1.46 µM [falling, partial curve, poor fit]
COCc1cc(C)nc2sc(C(=O)Nc3ccccc3Br)c(N)c12 10.3 µM [falling, partial curve]
Cc1c(/C=N/NC(=O)c2cccnc2)c2ccccn2c1C(=O)c1ccc(F)cc1 4.61 µM [activator, full curve]
COc1ccc(OC)c(/C=N/NC(=O)CCCC(=O)Nc2cccc(Br)c2)c1 25.9 µM [falling, partial curve]
COc1ccc(C)cc1NC(=O)/C=C/c1ccc(OC)c(S(=O)(=O)N2CCOCC2)c1 20.6 µM [falling, single point]
Cc1nc2scc(-c3ccccc3)c2c(=O)n1/N=C/c1ccco1 5.17 µM [activator, partial curve]
CCOc1cc(C=O)ccc1OCCCN1C(=O)NC(C)(C)C1=O 1.3 µM [falling, partial curve]
CCOC(=O)Cc1csc(N/N=C\c2ccccc2OC)n1 29.1 µM [activator, single point]

Lipid storage change, negative = inhibition, inconclusive:
O=S1(=O)CCN2C=C(Br)C=C(Br)C2=N1 2.94%
COc1ccc(C(C)(C)C)cc1NC(=O)CCCN1C(=O)CN(C)C1=O
CCn1cc(C(=O)NCCc2ccc(OC)cc2)c(=O)c2ccc(C)nc21 22%
COc1ccc(OC)c(C2=NOC(C(=O)Nc3ccc4c(c3)OCCO4)C2)c1 (stereo not given) -20.8%
CN(C)/C=N/c1nc2nccc(-c3cccs3)n2n1 -6.87%
Cc1cccc(NC(=O)/C(C#N)=C/c2ccc(F)cc2)n1 -18.7%
COc1ccc(S(=O)(=O)N2CCC(C(=O)N[C@@H](C)C(=O)N3CCCCCC3)CC2)cc1 29.2%
COc1ccc(C2CC(c3ccccc3)Nc3nc(N)nn32)cc1 (stereo not given) -6.88%
Cc1ccc2[nH]c3c(=O)n(Cc4ccco4)cnc3c2c1 3.97%
CC(OC(=O)CC1CC2CCC1C2)C(=O)Nc1ccc(N2CCOCC2)cc1 (stereo not given) -2.78%
COc1cccc(CNC(=O)C(c2ccc(Cl)cc2)C(C)C)c1 (stereo not given) 53.5%
CC1CCCC(NC(=O)CN2CCN(Cc3ccc(Cl)cc3)C2=O)C1C (stereo not given) -16.2%
COc1ccccc1NS(=O)(=O)c1cccc(C(=O)NNC(=O)c2ccc(O)c(Cl)c2)c1 22.3%
O=C1N/C(=N/N=C/c2ccccc2)SC1(c1ccccc1)c1ccccc1 -16.8%
CC(C)CCNC(=O)C(c1ccc(O)cc1)N(C(=O)C1COc2ccccc2O1)c1cccc(O)c1 (stereo not given) -17.6%
CC(=O)Nc1ccc(C(=O)CSc2nnnn2C2CCCC2)cc1 7.75%
CCCCn1c(N)c(N(CC)C(=O)/C=C/c2ccco2)c(=O)[nH]c1=O -11.9%
COc1ccccc1-n1nnnc1SCC(=O)N(CC(C)C)C1CCS(=O)(=O)C1 (stereo not given) 70.9%
Cc1ccccc1CN1C(=O)c2ccccc2S(=O)c2ccc(C(=O)NCCCN3CCOCC3)cc21 (stereo not given) 2.38%
CCOC(=O)C1C(=O)Nc2nc3ccccc3n2C1C(C)C (stereo not given) 13.8%
CC(=O)Nc1cccc(NC(=O)CS(=O)(=O)c2cn(CC(=O)N(C(C)C)C(C)C)c3ccccc23)c1 90.8%
COC(=O)c1cnn(-c2ccccc2)c1N 0.976%
Cc1ccccc1NC(=O)NC1(C(=O)N2CCN(C)CC2)CCCCC1 14.6%
Cc1ccc(C(=O)OCc2nc(N)nc(Nc3ccccc3C)n2)cc1 3.24%
O=C(COC(=O)c1ccccc1[N+](=O)[O-])Nc1nnc(-c2ccccc2)o1 -32.5% [at 0.0737 µM]
C=CCn1c(CNC(=O)c2ccccc2F)nnc1SCc1nc2ccccc2c(=O)[nH]1 -2.91%
CCOc1ccccc1CNC(=O)CCCC(=O)n1nc(C)c2ccccc21 -26.4%
CCn1c(SCC(=O)NCCc2ccccc2)nnc1-c1ccco1 49.4%
COc1ccc(C2=NOC(CNC(N)=S)C2)cc1 (stereo not given) 5.58%
CC(=O)c1ccc(N2CCC(c3cc(-c4ccc(Cl)cc4Cl)n[nH]3)CC2)c([N+](=O)[O-])c1 -82.7%
COC(=O)c1nn(-c2c(C)n(C)n(-c3ccccc3)c2=O)cc1O 22.4%
COc1ccc(-c2nnc(SCC(C)C)o2)cc1 19.4%
COc1ccc(C2CC(c3ccc(C)cc3)=NN2C(=O)CCC(=O)O)cc1OC (stereo not given) 8.97%
NC(=O)CC(NC(=O)Cc1ccc(Br)cc1)c1ccc(NC2CC3CCC2C3)c([N+](=O)[O-])c1 (stereo not given) -100%
CC(=O)Oc1c(C(=O)c2nnc(C)o2)c(=O)n(C)c2ccccc12 -4.5%
NS(=O)(=O)c1ccc(CCNCC(=O)N2CCC(Cc3ccccc3)CC2)cc1 -28.1%
O=C(COc1ccccc1Cl)N1N=C(c2cccs2)CC1c1ccco1 (stereo not given) -40.8%
COc1ccc(NC(=O)c2ccccc2OCc2c(C)noc2C)cc1OC 25.8%
Cc1cc(C)c2cc(C#N)c(N3CCCN(C(=S)NCCCN(C)C)CC3)nc2c1 -58.3%
Cc1onc(-c2ccccc2Cl)c1C(=O)N1CCOC12CCCCC2 -31.8%
O=[N+]([O-])c1ccc(N/N=C/c2cn(Cc3ccc(F)cc3)c3ccccc23)nc1 -9.18%
Cc1noc(C)c1C(=O)OCC(=O)NCCc1ccc(Cl)cc1 44.1% [activator]
CN1CCN(c2ccc(S(=O)(=O)N3CCCCC3)cn2)CC1 -14.9%
COc1ccc(NC(=O)CN2C(=O)/C(=C3\SC(=S)N(C4CCS(=O)(=O)C4)C3=O)c3ccccc32)cc1 (stereo not given) 10.4%
CCN(Cc1ccccc1)C(=O)c1cc2cc(OC)c(OC)cc2[nH]1 14.9%
CCOC(=O)C1CCCN(C(=O)c2ccc(S(=O)(=O)NCc3ccco3)cc2)C1 (stereo not given) 31.6%
CCn1c(CNC(=O)c2ccco2)nnc1SCCOc1ccccc1 50.1%

3 structures out of the list, sorted by length of the SMILES, high to low:
Lipid storage change, negative = inhibition, inconclusive:
CCN(Cc1ccccc1)C(=O)c1cc2cc(OC)c(OC)cc2[nH]1 14.9%
Cc1ccc2[nH]c3c(=O)n(Cc4ccco4)cnc3c2c1 3.97%
COc1ccc(C2=NOC(CNC(N)=S)C2)cc1 (stereo not given) 5.58%

Following part:

Lipid storage change, negative = inhibition, inactive:
CCCNC(=O)c1cccc(Br)c1
COc1ccc(NC(=O)C2CCCN2C(=O)NCc2ccccc2)c(OC)c1 (stereo not given)
CCCCCCNC(=O)c1cc(-c2ccco2)nc2ccccc12
